Experimental data as given in PubChem BioAssay AID540276 (National Center for Advancing Translational Sciences (NCATS), 2011).
Out of some 300,000 compounds screened, about 5,400 (1.8%) were called active. Inconclusive results, whose numbers are uncertain, are shown with a selection of clear calls. Calls come from the whole dose curve; tested in HEK293 cells. Potencies of inconclusive entries are doubtful fits and often do not repeat.

Assay: qHTS for inhibitors of binding or entry into cells for Marburg Virus
Conditions: Marburg virus pseudotyped entry inhibition, cell reporter; activity change, negative = inhibition: at 37.8 µM (top of the series) unless noted
% is set by controls: 0 for no effect and ±100 for the full control effect; potency is the fitted concentration of half-maximal effect.

SMILES | Potency | activity change, negative = inhibition
COc1ccc(CSc2nnc(C)n2N)cc1[N+](=O)[O-] | inconclusive: 1.26 µM [inhibitor, partial curve, poor fit] | –
OC(c1cc(-c2cccc(Cl)c2)nc2ccccc12)C1CCCCN1 (configuration not stated) | active: 11.2 µM | –
CCc1ccc(-c2nnn(CCC(=O)OC)n2)cc1 | inconclusive: 2.91 µM [inhibitor, full curve] | –
COc1ccc(-c2cc(=O)oc3c4c(ccc23)OCN(Cc2ccccc2)C4)cc1 | inconclusive: 5.01 µM [activator, single point] | –
COc1ccc(CCNC(=O)/C(=C/c2cccnc2)NC(=O)c2ccccc2)cc1 | inconclusive: 10 µM [inhibitor, partial curve, poor fit] | –
Cc1nc2ccccc2nc(C)c1=NOCc1cccc(F)c1 | inconclusive: 22.4 µM [inhibitor, single point] | –
CCC1(CC)NC(=O)N(CC(=O)OC(C)C(=O)Nc2ccc(NC(C)=O)cc2)C1=O (configuration not stated) | inconclusive: 1 µM [inhibitor, single point] | –
COc1ccc(C(=O)N/N=C/C(C)c2ccccc2)cc1OC (configuration not stated) | – | inactive: -0.271%
Cc1ccccc1Nc1cc(=O)oc2ccccc12 | inconclusive: 7.08 µM [inhibitor, partial curve, poor fit] | –
CCOc1ccc(OCC)c(NC(=O)CSc2nnc(C3CC3)n2CC)c1 | inconclusive: 7.08 µM [inhibitor, partial curve, poor fit] | –
Cc1c(NC2=CC(=O)CCC2)c(=O)n(-c2ccccc2)n1C | inconclusive: 6.31 µM [inhibitor, single point] | –
Cc1cccc(/C=N/NC(=O)NC2CCCCC2)c1 | – | inactive: -21.3%
O=C(Nc1nc(-c2ccccn2)cs1)C12CC3CC(CC(O)(C3)C1)C2 | inconclusive: 35.5 µM [inhibitor, single point] | –
CCN(CC)CCOc1c(Br)ccc2c1sc1nc3n(c(=O)c12)CCC3 | inconclusive: 10 µM [inhibitor, partial curve, poor fit] | –
CCC1CCC(c2nnc(-c3ccc(Br)cc3)o2)CC1 (configuration not stated) | inconclusive: 10 µM [activator, partial curve, poor fit] | –
CCS(=O)(=O)c1ncc(Cl)c(C(=O)NCc2ccccc2)n1 | inconclusive: 25.1 µM [inhibitor, partial curve, poor fit] | –
COc1ccc(Br)cc1/C=C/C(=O)c1ccc(NC(C)=O)cc1 | inconclusive: 11.2 µM [inhibitor, partial curve, poor fit] | –
Cc1ccc(NC(=O)c2c([N+](=O)[O-])c(C(C)(C)C)nn2C)c(C)c1 | inconclusive: 0.282 µM [inhibitor, partial curve, poor fit] | –
NC(=S)N/N=C/c1cccc(O)c1O | inconclusive: 15.8 µM [inhibitor, single point] | –
O=C(NN1C(=O)C2C3C=CC(O3)C2C1=O)c1cccc(O)c1 (configuration not stated) | – | inactive: -15.1%
Cc1ccc(NC(=O)CCC(=O)N/N=C/c2coc3ccc(F)cc3c2=O)cc1 | – | inactive: 2.11% [at 46.1 µM]
CCOc1ccc(CCNC(=O)c2ccccc2OCc2c(C)noc2C)cc1OCC | – | inactive: -25.4%
N#Cc1c(N2CCNCC2)nc(-c2ccco2)c2c1CCCC2 | inconclusive: 6.31 µM [inhibitor, partial curve, poor fit] | –

Shown as comma-separated lines: entries from further up
SMILES,Potency,"activity change, negative = inhibition"
Cc1ccc(NC(=O)CCC(=O)N/N=C/c2coc3ccc(F)cc3c2=O)cc1,–,inactive: 2.11% [at 46.1 µM]
CCOc1ccc(CCNC(=O)c2ccccc2OCc2c(C)noc2C)cc1OCC,–,inactive: -25.4%
N#Cc1c(N2CCNCC2)nc(-c2ccco2)c2c1CCCC2,"inconclusive: 6.31 µM [inhibitor, partial curve, poor fit]",–

The list continues:

SMILES | Potency | activity change, negative = inhibition
O=C(Nc1cnn(Cc2ccc(F)cc2)c1)c1cnccn1 | – | inactive: 12.9%
Cc1ccc(NC(=O)CN(C)C2CCCCC2)cc1Cl | inconclusive: 2 µM [inhibitor, partial curve, poor fit] | –
NS(=O)(=O)c1ccccc1NC(=O)c1c(O)c2ccccc2[nH]c1=O | inconclusive: 35.5 µM [inhibitor, single point] | –
CC1CCCC(C)N1/N=C/C=C/c1ccccc1[N+](=O)[O-] (configuration not stated) | – | inactive: 1.87% [at 46.1 µM]
COc1ccc(C(=O)NCCSc2ccc(C)cc2)cc1 | inconclusive: 20 µM [inhibitor, single point] | –
CCOc1ccc2nc(SCC(=O)N3CCCCCC3)c(C#N)cc2c1 | inconclusive: 4.47 µM [activator, partial curve, poor fit] | –
O=C(NCCC1=CCCCC1)c1cnc2n(c1=O)CCS2 | – | inactive: 1.61%
O=C(N/N=C/c1cn(-c2cccs2)nc1-c1ccccc1)c1ccc(O)cc1 | inconclusive: 2.82 µM [activator, single point] | –
Cc1ccc(Nc2c(-c3ccc(C)o3)nc3cccc(C)n23)cc1 | inconclusive: 6.31 µM [activator, single point] | –
COc1ccccc1CNC(=O)CC1Sc2ccccc2NC1=O (configuration not stated) | – | inactive: -10.6% [at 46.1 µM]
Cn1nnnc1SCc1csc(C2C(C#N)=C(N)OC3=C2C(=O)CCC3)c1 (configuration not stated) | – | inactive: 8.64% [at 46.1 µM]
O=C(O)C1OC1(c1ccccc1Cl)c1ccccc1Cl (configuration not stated) | – | inactive: 4.59%
Cc1nn(-c2ccc(F)cc2)c(Cl)c1/C=C1\C(=O)Nc2ccccc21 | inconclusive: 0.708 µM [inhibitor, full curve, poor fit] | –
COc1cccc2sc(Nc3nc(-c4ccncc4)cs3)nc12 | inconclusive: 2 µM [inhibitor, partial curve, poor fit] | –
COc1ccccc1NC(=O)c1cc2n(n1)C(C(F)(F)F)CC(c1ccc3c(c1)OCO3)N2 (configuration not stated) | inconclusive: 17.8 µM [inhibitor, single point] | –
O=c1[nH]c(=O)n(-c2cccc(Cl)c2)c(O)c1/C=N/c1ccccn1 | inconclusive: 0.251 µM [activator, full curve, poor fit] | –
O=C(Nc1ccc2c(c1)nc1n2CCOC1)C1CCCCC1 | – | inactive: 16.5%
CC1CCN(CCCCOc2ccc(F)cc2)CC1 | inconclusive: 35.5 µM [inhibitor, single point] | –
Cc1cc(/C=N/NC(=O)c2c(Br)cnn2C)c(C)n1-c1cccc(Br)c1 | inconclusive: 14.1 µM [inhibitor, partial curve, poor fit] | –
COc1ccccc1N1CCN(C(=O)CCNS(=O)(=O)c2ccc(Br)s2)CC1 | inconclusive: 20 µM [inhibitor, single point] | –
Cc1ccc(C(OC(=O)c2ccco2)C(=O)NC2CCCCC2)cc1 (configuration not stated) | – | inactive: -2.77%
O=C(COc1ccc(S(=O)(=O)N2CCCCC2)cc1)N1CCN(Cc2ccccc2)CC1 | inconclusive: 10 µM [inhibitor, partial curve, poor fit] | –
COc1ccc(C(=O)NCC(=O)Nc2cccc(S(=O)(=O)N3CCCC3)c2)cc1 | – | inactive: 19.9%

SMILES | Potency | activity change, negative = inhibition
COc1cccc(NC(=O)CN2CCN(S(=O)(=O)c3ccc(F)cc3)CC2)c1 | – | inactive: -1.7%
CC[C@@H]1C=C(C)C[C@H](C)C[C@H](OC)[C@H]2O[C@@](O)(C(=O)C(=O)N3CCCC[C@H]3C(=O)O[C@H](/C(C)=C/[C@@H]3CC[C@@H](O)[C@H](OC)C3)[C@H](C)[C@@H](O)CC1=O)[C@H](C)C[C@@H]2OC | active: 6.51 µM | –
NNc1nc2c(-c3cccc(C(F)(F)F)c3)nnn2c2ccccc12 | inconclusive: 35.5 µM [inhibitor, single point] | –
CC(C)C(C(=O)Nc1ccccc1F)N1C(=O)c2ccccc2C1=O (configuration not stated) | inconclusive: 3.16 µM [activator, partial curve, poor fit] | –
CO/N=C\CC(=O)Nc1ccc(Cl)c(Cl)c1 | inconclusive: 1.41 µM [inhibitor, full curve, poor fit] | –
Cc1ccc(Cn2ncc3c(NN)ncnc32)cc1 | – | inactive: -5.11%
CCOC(=O)N1CCN(CC(=O)Nc2sc(CC)cc2C(=O)c2ccc(OC)cc2)CC1 | inconclusive: 22.4 µM [inhibitor, single point] | –
COc1ccc2c(c1)O[C@H](c1ccc3c(c1)OCO3)[C@@H](O)C2=O | inactive | –
CCOC(=O)C1=C(C)NC(C)=C(C(=O)OCC)C1C(=O)OCC(=O)NC(C)c1ccccc1 (configuration not stated) | inconclusive: 11.2 µM [inhibitor, partial curve, poor fit] | –
CCc1ccc(N2CSC3=C(C#N)C(c4cccs4)CC(=O)N3C2)cc1 (configuration not stated) | inconclusive: 6.51 µM [activator, single point] | –
Cc1ccc2c(c1)-c1nc3ccccc3cc1C2=NC1CCCCC1 | inconclusive: 15.8 µM [inhibitor, single point] | –
CCOC(=O)Nc1ccc2c(c1)nc1n2CCN(CCOC)C1 | inconclusive: 10 µM [activator, partial curve] | –
CCN(CC)CCN(C(=O)c1ccc2c(c1)CCCC2)c1nc2ccc(OC)cc2s1 | inconclusive: 20 µM [inhibitor, single point] | –
COCCn1c(C)cc(C(=O)COC(=O)c2n[nH]c3ccccc23)c1C | inconclusive: 5.17 µM [inhibitor, full curve, poor fit] | –
COc1cccc([C@@H]2Oc3ccc(Br)cc3C(=O)[C@H]2OC(=O)Nc2ccc(OC(F)F)cc2)c1 | inconclusive: 3.76 µM [activator, single point] | –
Cc1ccc(S(=O)(=O)n2c3ccc(Cl)cc3c3nc(C)sc32)cc1 | inconclusive: 16.4 µM [inhibitor, partial curve, poor fit] | –
Cc1ccc(-n2nc(C(=O)N(C)Cc3ccccc3)c3c4ccccc4n(C)c3c2=O)cc1 | – | inactive: 23.5% [at 46.1 µM]
CC(C)[C@@H](C(=O)OCC(=O)Nc1ccc2c(c1)OCO2)N1C(=O)c2ccccc2C1=O | – | inactive: -2.71%
CNC(=O)C(=O)NCC1OCCCN1S(=O)(=O)c1cccs1 (configuration not stated) | inconclusive: 1.41 µM [activator, single point] | –
COc1ccc(C2=NN(C(=O)c3cccnc3)C(c3ccccc3)C2)cc1 (configuration not stated) | inconclusive: 1.26 µM [activator, single point] | –
COc1cc2cc(C(=O)O)[nH]c2c(OC)c1OC | inconclusive: 18.3 µM [activator, partial curve, poor fit] | –
